PubChem BioAssay AID504744 | Drosophila RNAi Screening Center | 2011
In all, the deposit lists about 23,000 reagents; shown is a random part of those that have a named target and a result. In the full data, 98 (0.43%) were called active. 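Only hit calls are given; the phospho-dAkt signals, z-scores and hit direction were not deposited.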 Reagents against one gene are numbered here. A plus sign joins genes that one reagent is predicted to hit. Reagent sequences are not shown.

Assay: 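Find genes whose loss alters insulin-driven dAkt phosphorylation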 (primary screen)
Cell system: Drosophila Kc167 cells
Knock-down reagent: long dsRNA against Drosophila genes, 250 ng dsRNA per well of a 384-well plate
Time to read-out: 3 days of knock-down, then overnight serum-free starvation before stimulation
Treatment: bovine insulin at 387 nM for 10 minutes after 12 h without serum
Read-out: 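Per-well phospho-dAkt level from an in-cell fluorescent antibody stain, divided by a DNA-dye signal; log2 residuals turned into z-scores that take cell number into account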
Hit rule: 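Under insulin, a gene counts as a hit if the average z-score of two replicates lies above 2.5 or below -2.5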

gene | dsRNA no. | Call
CG1309 | 1 | inactive
CG15422 | 1 | inactive
CG3328 | 1 | inactive
CG15554 | 1 | inactive
rig | 1 | inactive
rig | 2 | inactive
Gga | 1 | inactive
Qsox1 | 1 | inactive
CG8892 | 1 | inactive
row | 1 | inactive
row | 2 | inactive
CG5555 | 1 | inactive
CG31161 | 1 | inactive
Hipk | 1 | inactive
Hipk | 2 | inactive
CG2269 | 1 | inactive
CG15831 (retired record) | 1 | inactive
RabGGTa | 1 | inactive
Pgant1 | 1 | inactive
Cyp313a4 | 1 | inactive
Toll-4 | 1 | inactive
I-t | 1 | inactive
CG8841 | 1 | inactive
Ddrgk1 | 1 | inactive
CG13482 | 1 | inactive
LanB1 | 1 | inactive
CG11902 | 1 | inactive
CG10472 | 1 | inactive
mim | 1 | inactive
jagn | 1 | inactive
OdsH | 1 | inactive
Prp38 | 1 | inactive
ppk15 | 1 | inactive
Pex11ab | 1 | inactive
RhoGEF3 (retired record) | 1 | inactive
RhoGEF3 (retired record) | 2 | inactive
CheB93b | 1 | inactive
CdGAPr | 1 | inactive
CG18178 | 1 | inactive
CG10132 | 1 | inactive
CG5757 | 1 | inactive
Idgf4 | 1 | inactive
Glys | 1 | inactive
ohgt | 1 | inactive
CG31998 | 1 | inactive
CG31998 | 2 | inactive
trbl | 1 | inactive
Prosalpha4T2 | 1 | inactive
Fib | 1 | inactive
Ttd14 | 1 | inactive
Ttd14 | 2 | inactive
Pbgs | 1 | inactive
Cerk | 1 | inactive
ebo | 1 | inactive
CG43102 | 1 | inactive
CG43102 | 2 | inactive
Dysb | 1 | inactive
CG10164 | 1 | inactive
RpL27 | 1 | inactive
side-VIII | 1 | inactive
side-VIII | 2 | inactive
side-VIII | 3 | inactive
Cox17 | 1 | inactive
Chs2 | 1 | inactive
GlcAT-P | 1 | inactive
GlcAT-P | 2 | inactive
CG4074 | 1 | inactive
Gr22b | 1 | inactive
CatB | 1 | inactive
Jhbp7 | 1 | inactive
yip2 | 1 | inactive
CG13331 | 1 | inactive
Balat | 1 | inactive
clos | 1 | inactive
clos | 2 | inactive
clos | 3 | inactive
clos | 4 | inactive
clos | 5 | inactive
CG11286 | 1 | inactive
aph-1 | 1 | inactive
Nnk | 1 | inactive
Gr47a | 1 | inactive
Rpp30 | 1 | inactive
GC2 | 1 | inactive
CG40948 (retired record) | 1 | inactive
CG9300 | 1 | inactive
noc | 1 | inactive
smg | 1 | inactive
Oseg6 | 1 | inactive
Efr | 1 | inactive
pen-2 | 1 | inactive
Cpr92F | 1 | inactive
CG7675 | 1 | inactive
CG15144 | 1 | inactive
CG32631 | 1 | inactive
Reg-5 | 1 | inactive
CG15579 | 1 | inactive
CG12746 | 1 | inactive
CG7402 | 1 | inactive
CG3253 | 1 | inactive
bocks | 1 | inactive
CG31064 | 1 | inactive
CG31064 | 2 | inactive
CG31064 | 3 | inactive
CG31064 | 4 | inactive
Cpr76Bc | 1 | inactive
Crk | 1 | inactive
Tcs4 | 1 | inactive
aspr | 1 | inactive
aspr | 2 | inactive
trsn | 1 | inactive
mia | 1 | inactive
CG9416 | 1 | inactive
ZnT35C | 1 | inactive
Cpr65Av | 1 | inactive
Gasz | 1 | inactive
CG33255 (retired record) + hpRNA:CR32205 | 1 | inactive
CG33255 (retired record) + hpRNA:CR32205 | 2 | inactive
Yp1 | 1 | inactive
Mys45A | 1 | inactive
ppk25 | 1 | inactive
Ubc7 | 1 | inactive
Saysd1 | 1 | inactive

Continued; the last 10 above are carried over.
gene | dsRNA no. | Call
ZnT35C | 1 | inactive
Cpr65Av | 1 | inactive
Gasz | 1 | inactive
CG33255 (retired record) + hpRNA:CR32205 | 1 | inactive
CG33255 (retired record) + hpRNA:CR32205 | 2 | inactive
Yp1 | 1 | inactive
Mys45A | 1 | inactive
ppk25 | 1 | inactive
Ubc7 | 1 | inactive
Saysd1 | 1 | inactive
Rel | 1 | inactive
Obp56e | 1 | inactive
NFAT | 1 | inactive
NFAT | 2 | inactive
CG14013 | 1 | inactive
Myo31DF | 1 | inactive
Myo31DF | 2 | inactive
CG17508 | 1 | inactive
Fdh | 1 | inactive
Sod3 | 1 | inactive
Lmx1a | 1 | inactive
Lmx1a | 2 | inactive
Vajk3 | 1 | inactive
Cul5 | 1 | inactive
kmg | 1 | inactive
adp | 1 | inactive
Unc-115b + p24-2 + Unc-115a | 1 | inactive
CG11566 (retired record) + stg1 | 1 | inactive
CG11566 (retired record) + stg1 | 2 | inactive
CG11566 (retired record) + stg1 | 3 | inactive
CG11566 (retired record) + stg1 | 4 | inactive
CG11374 | 1 | inactive
CG18258 | 1 | inactive
CG17959 | 1 | inactive
CG12863 | 1 | inactive
eIF3l | 1 | inactive
Jheh1 | 1 | inactive
Yod1 | 1 | inactive
CG43325 | 1 | inactive
CG13692 | 1 | inactive
CG33095 | 1 | inactive
Prosalpha6T | 1 | inactive
CG14207 | 1 | inactive
CG14207 | 2 | inactive
Dh44 | 1 | inactive
Dh44 | 2 | inactive
CG14695 | 1 | inactive
CG4199 | 1 | inactive
CG4199 | 2 | inactive
CG13716 | 1 | inactive
CG13716 | 2 | inactive
CG13856 | 1 | inactive
CG42694 | 1 | inactive
ACXD | 1 | inactive
CG31126 | 1 | inactive
CG33292 (retired record) | 1 | inactive
CG12877 | 1 | inactive
Ote | 1 | inactive
Ir40a | 1 | inactive
Ir40a | 2 | inactive
pad | 1 | inactive
CG17486 | 1 | inactive
Hakai | 1 | inactive
CG5815 | 1 | inactive
Ssu72 | 1 | inactive
CG14491 | 1 | inactive
beat-Vc | 1 | inactive
beat-Vc | 2 | inactive
EMRE | 1 | inactive
CG17819 | 1 | inactive
CR18275 | 1 | inactive
Cpr73D | 1 | inactive
YL-1 | 1 | inactive
CG5254 | 1 | inactive
AP-1sigma | 1 | inactive
CG42376 + cin | 1 | inactive
Hrb98DE | 1 | inactive
RpL10Ab | 1 | inactive
CG10638 | 1 | inactive
CG3483 | 1 | inactive
mRpL27 | 1 | inactive
CG18130 | 1 | inactive
Ack | 1 | inactive
CG6409 | 1 | inactive
CG6409 | 2 | inactive
sls | 1 | inactive
sls | 2 | inactive
sls | 3 | inactive
